Experimental data from patent publication US20030100489A1.
No constants are given. Whether binding was seen depends on the method and setting. For some of these results: In cells and extracts the contact can be indirect. Some entries that bind do so weakly or less than the wild type. Each block holds one substance with its values, some of them ahead of it.

Sequences of proteins named here, by UniProt entry; tags and fusion partners are left off. A change or cut given only in a name is not applied to a line headed by its entry.
UniProt P11802: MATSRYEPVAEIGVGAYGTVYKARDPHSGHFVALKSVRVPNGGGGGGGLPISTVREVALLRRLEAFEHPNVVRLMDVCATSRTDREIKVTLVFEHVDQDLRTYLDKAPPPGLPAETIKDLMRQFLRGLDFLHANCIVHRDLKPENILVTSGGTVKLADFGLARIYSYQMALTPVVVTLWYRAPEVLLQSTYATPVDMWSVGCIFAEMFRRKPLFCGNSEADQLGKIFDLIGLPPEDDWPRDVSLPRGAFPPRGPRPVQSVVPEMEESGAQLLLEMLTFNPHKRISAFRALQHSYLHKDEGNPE
UniProt Q00534: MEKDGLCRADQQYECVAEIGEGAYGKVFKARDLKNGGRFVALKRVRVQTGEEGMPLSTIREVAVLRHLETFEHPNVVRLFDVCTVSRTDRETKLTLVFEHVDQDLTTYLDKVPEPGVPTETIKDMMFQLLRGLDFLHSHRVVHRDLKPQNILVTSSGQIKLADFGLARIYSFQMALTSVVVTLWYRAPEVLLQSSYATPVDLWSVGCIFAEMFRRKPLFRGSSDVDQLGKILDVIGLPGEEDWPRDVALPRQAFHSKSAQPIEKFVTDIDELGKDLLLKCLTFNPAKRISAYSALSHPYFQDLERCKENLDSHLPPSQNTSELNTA
UniProt P42771: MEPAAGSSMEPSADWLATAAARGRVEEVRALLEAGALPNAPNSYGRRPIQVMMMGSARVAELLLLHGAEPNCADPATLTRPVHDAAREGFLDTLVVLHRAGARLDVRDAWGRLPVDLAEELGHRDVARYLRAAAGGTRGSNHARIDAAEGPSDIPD
UniProt P42772: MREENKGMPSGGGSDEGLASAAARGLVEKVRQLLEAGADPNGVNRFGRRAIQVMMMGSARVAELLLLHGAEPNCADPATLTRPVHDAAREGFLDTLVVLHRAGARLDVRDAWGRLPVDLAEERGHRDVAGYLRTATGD

How the values were obtained:
[1] = target: GAL4db-CDK4 fusion (human); assay: yeast two-hybrid (HIS3 growth and beta-galactosidase) in YPB2
[2] = target: GAL4db-CDK4 fusion (human); assay: yeast two-hybrid screen of HeLa cDNA with GAL4db-CDK4; positive clones encode p16
[3] = target: CDK4 (wild-type) (human) (UniProt P11802); assay: immunoprecipitation from mixed Sf9 lysates
[4] = target: CDK4 (wild-type) (human) (UniProt P11802); assay: anti-CDK4 co-immunoprecipitation from TGF-β arrested HaCaT cells
[5] = target: CDK6 (human) (UniProt Q00534); assay: anti-CDK6 co-immunoprecipitation from TGF-β arrested HaCaT cells
[6] = target: CDK4 (wild-type) (human) (UniProt P11802); assay: anti-CDK4 co-immunoprecipitation from TGF-β arrested human keratinocytes
[7] = target: CDK6 (human) (UniProt Q00534); assay: anti-CDK6 co-immunoprecipitation from TGF-β arrested human keratinocytes
[8] = target: CDK4 (wild-type) (human) (UniProt P11802); assay: anti-CDK4 co-immunoprecipitation from 35S-labelled HaCaT cells treated with TGF-β
[9] = target: CDK6 (human) (UniProt Q00534); assay: anti-CDK6 co-immunoprecipitation from 35S-labelled HaCaT cells treated with TGF-β
[10] = target: CDK4 (wild-type) (human) (UniProt P11802); assay: anti-CDK4 co-immunoprecipitation from asynchronous HaCaT cells treated with TGF-β
[11] = target: CDK6 (human) (UniProt Q00534); assay: anti-CDK6 co-immunoprecipitation from asynchronous HaCaT cells treated with TGF-β
[12] = target: CDK4 (wild-type) (human) (UniProt P11802); assay: GST pull-down of 35S-labelled in vitro translated CDKs on glutathione sepharose
[13] = target: CDK6 (human) (UniProt Q00534); assay: as above

binding [1]: binds | binding [2]: binds
Substance: GAL4ad-p16 fusion (from UniProt P42771 1-156)

binding [3]: binds | binding [4]: binds | binding [5]: binds | binding [6]: binds | binding [7]: binds | binding [8]: binds | binding [9]: binds | binding [10]: binds | binding [11]: binds
Substance: p15 (from UniProt P42772 1-138)

binding [12]: binds | binding [13]: binds
Substance: GST-p15 (from UniProt P42772 1-138)
